Earlier results in US20150209335A1, “METHODS AND SMALL MOLECULE THERAPEUTICS COMPRISING FUSED ELPS” (UNIVERSITY OF SOUTHERN CALIFORNIA, priority 2012, published 2015).

Conditions: cited from earlier work

Compound: CO[C@H]1C[C@@H]2CC[C@@H](C)[C@@](O)(O2)C(=O)C(=O)N2CCCC[C@H]2C(=O)O[C@H]([C@H](C)C[C@@H]2CC[C@@H](O)[C@H](OC)C2)CC(=O)[C@H](C)/C=C(\C)[C@@H](O)[C@@H](OC)C(=O)[C@H](C)C[C@H](C)/C=C/C=C/C=C/1C [rapamycin, (3S,6R,7E,9R,10R,12R,14S,15E,17E,19E,21S,23S,26R,27R,34aS)-9,10,12,13,14,21,22,23,24,25,26,27,32,33,34,34a-hexadecahydro-9,27-dihydroxy-3-[(1R)-2-[(1S,3R,4R)-4-hydroxy-3-methoxycyclohexyl]-1-methylethyl]-10,21-dimethoxy-6,8,12,14,20,26-hexamethyl-23,27-epoxy-3H-pyrido[2,1-c][1,4]-oxaazacyclohentriacontine-1,5,11,28,29 (4H,6H,31H)-pentone]
- solubility in H2O: less than 10 μM
